Measured values: patent US20230059785A1, “METHODS FOR ENHANCING T CELLS USING VENETOCLAX” (University Health Network, priority 2020, published 2023)
At least one compound was matched to its structure with a doubt left.

Assays:
DNT cells [1] = experiment: Expression of activation markers and effector molecules on DNT cells; type: cell-based, human
CD8+ Tconv cells [2] = experiment: Cellular and mitochondrial ROS level in Tconv cells (CellROX, MitoSOX); type: cell-based, human
Nrf2 = Nrf2 expression (qPCR) and localization (Western blot) in DNTs; type: cell-based, human; details: 400 nM Ven
CD8+ Tconv cells [3] = experiment: Memory phenotype of CD8+ Tconv cells; type: cell-based, human
[4] = test system: respiratory chain supercomplexes; experiment: Native gel and immunoblotting of respiratory chain supercomplexes in DNTs; type: cell-based, human; details: 400 nM
[5] = test system: AML cell lines, OCI-AML2, OCI-AML3, and KG1a; experiment: In vitro killing assay with Ven-pretreated DNT cells against AML cell lines; type: cell-based, human; details: DNT cells from two donors
Experimental: FIG. 2. Venetoclax enhances T cell mediated cytotoxicity against AML in vitro. (A) To validate the finding from the drug screening, in vitro killing assay was conducted with DNT cells untreated or pretreated with various concentrations of Ven (50 nM, 100 nM, 200 nM, 400 nM) for overnight against AML cell lines, OCI-AML2, OCI-AML3, and KG1a. The data is representative of four biological replicates. (B) In vitro cytotoxicity assay using DNT cells pretreated with 400 nM Ven as effectors against primary AML patient samples (n=17). (C) To determine the activity of DNT cells with or without Ven-treatment against leukemia initiating cells, untreated AML or AML treated with untreated or Ven-treated DNT cells were seeded at 10^3 cells per ml in a methylcellulose-based colony forming assay, and the number of colonies formed were determined 10 days after. The experiment was done with OCI-AML2 and KG1a, as well as patient samples 140372, 100857, 110162 and 141065. […] The experiment was done using DNT cells from two different donors (UPN119 and UPN38). (E) Correlation between the susceptibility of AML to DNT cells and the degree of increase in DNT cell-mediated cytotoxicity by Ven treatment. […] Subsequently, they were cultured with OCI-AML2 at 1:1, 2:1, or 4:1 DNT:AML ratio, and the viability of AML cells were measured by Annexin V staining and flow cytometry. […]

[6] = monotherapy; relapse/refractory CLL patients; cited from earlier work
[7] = test system: electron transport chain (ETC) complex subunits; experiment: Levels of respiratory chain complex subunits in DNTs (SDS-PAGE, immunoblotting); type: cell-based, human; details: 400 nM Venetoclax, 18 hours
DNT cells [8] = experiment: Memory phenotype of DNT cells; type: cell-based, human
CD8+ Tconv cells [9] = experiment: Expression of CD25, NKG2D and DNAM-1 on CD8+ T cells; type: cell-based, human
DNT cells [10] = experiment: Cellular and mitochondrial ROS level in DNT cells (CellROX, MitoSOX); type: cell-based, human
[11] = 100 nM or 400 nM, 4 hours, 18 hours and 2 days, MitoSOX
[12] = increasing concentrations, dose-dependent

Structure (SMILES): CC1(C)CCC(CN2CCN(c3ccc(C(=O)NS(=O)(=O)c4ccc(NCC5CCOCC5)c([N+](=O)[O-])c4)c(Oc4cnc5[nH]ccc5c4)c3)CC2)=C(c2ccc(Cl)cc2)C1 [Venetoclax]
- expression of activation markers CD69 and CD25 on DNT cells (DNT cells [1]; 400 nM Ven): higher expression
- expression of effector molecules NKG2D and DNAM-1 on DNT cells (DNT cells [1]; 400 nM Ven): higher expression
- expression of granzyme B in DNT cells (DNT cells [1]; different concentrations of Ven, versus vehicle): higher levels of granzyme B
- cellular and mitochondrial ROS in Tconv cells (CD8+ Tconv cells [2]; [11]): increased cellular and mitochondrial ROS
- cellular ROS in CD8+ Tconv cells (CD8+ Tconv cells [2]; [12]): increased cell cellular ROS
- Nrf2 expression and localization in DNTs (Nrf2): increased expression and nuclear localization
- proportion of effector memory and central memory cells, CD8+ Tconv cells (CD8+ Tconv cells [3]): increased the proportion of cells in effector memory stage while reducing the frequency of central memory T cells
- respiratory chain supercomplex formation in DNT cells [4]: reduced the formation of respiratory chain supercomplex formation
- retention of increased effector activity after removal of the drug [5]: retained for at least four days after the removal of the drug
- overall response rate [6]: 64.8%-79.4%
- levels of ETC complex subunits NDUFA9, UQCRC2 and MTCO1 [7]: No change
- levels of ETC complex subunits NDUFA9, UQCRC2 and MTCO1 ([7]; listed as Ven): no change
- proportion of effector memory and central memory cells, DNT cells (DNT cells [8]): increased the proportion of cells in effector memory stage while reducing the frequency of central memory T cells
- CD25, NKG2D, and DNAM-1 expression on CD8+ Tconv cells (CD8+ Tconv cells [9]): dose-dependent increase
- cellular and mitochondrial ROS in DNT cells (DNT cells [10]; [11]): increased cellular and mitochondrial ROS
- cellular ROS in DNT cells (DNT cells [10]; [12]): increased cell cellular ROS
